Paper PMC9499959
Results are given in words; binding and its absence hold for the method and conditions named. In cells and extracts the contact can be indirect. Some entries that bind do so weakly or less than the wild type. For part of these data: Sequences can lack the tags named with a protein.

The chains behind the UniProt entries cited, without tags or fusion partners. Where a name states a change or a piece, a line headed by the entry shows the natural chain unless it says otherwise.
UniProt P0CG48: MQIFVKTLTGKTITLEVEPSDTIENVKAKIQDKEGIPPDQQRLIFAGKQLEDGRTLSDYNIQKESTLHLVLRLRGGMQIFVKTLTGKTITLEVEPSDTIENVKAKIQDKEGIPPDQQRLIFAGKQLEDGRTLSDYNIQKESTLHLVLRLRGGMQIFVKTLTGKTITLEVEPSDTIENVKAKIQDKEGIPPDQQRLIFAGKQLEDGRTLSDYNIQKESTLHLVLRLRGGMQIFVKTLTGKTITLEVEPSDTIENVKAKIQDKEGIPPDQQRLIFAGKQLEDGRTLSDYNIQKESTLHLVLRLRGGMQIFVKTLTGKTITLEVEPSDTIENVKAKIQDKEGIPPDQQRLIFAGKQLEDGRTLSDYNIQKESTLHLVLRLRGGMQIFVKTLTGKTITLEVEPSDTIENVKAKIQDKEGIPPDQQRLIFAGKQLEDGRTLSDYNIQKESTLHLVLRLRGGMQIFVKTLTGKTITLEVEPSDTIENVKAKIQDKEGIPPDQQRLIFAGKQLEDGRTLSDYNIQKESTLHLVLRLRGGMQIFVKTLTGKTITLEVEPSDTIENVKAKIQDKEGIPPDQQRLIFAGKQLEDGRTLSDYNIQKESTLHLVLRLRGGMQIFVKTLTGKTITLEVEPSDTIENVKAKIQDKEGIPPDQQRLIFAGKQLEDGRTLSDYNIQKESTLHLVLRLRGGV

Key:
[1] = target: T1, MBP-Dma1(full-length) (S. pombe) (UniProt Q10322); assay: pull-down; purified bacterially expressed MBP-Dma1 variants incubated with clarified lysate of tip1-6HA yeast cells for 1–2 h at 4 °C in NP-40 buffer, precipitated by amylose resin, western blot; only the target purified
T1 sequence: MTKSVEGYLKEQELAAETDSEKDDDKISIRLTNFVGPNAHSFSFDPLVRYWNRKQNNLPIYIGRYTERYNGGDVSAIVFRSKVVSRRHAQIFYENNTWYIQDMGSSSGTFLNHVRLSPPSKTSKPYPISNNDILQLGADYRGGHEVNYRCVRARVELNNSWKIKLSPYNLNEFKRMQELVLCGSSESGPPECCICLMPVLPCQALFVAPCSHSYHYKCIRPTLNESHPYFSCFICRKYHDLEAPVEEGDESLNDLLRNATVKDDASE

[2] = target: T2, MBP-Dma1(1-173aa) (S. pombe) (UniProt Q10322); assay: as above
T2 sequence: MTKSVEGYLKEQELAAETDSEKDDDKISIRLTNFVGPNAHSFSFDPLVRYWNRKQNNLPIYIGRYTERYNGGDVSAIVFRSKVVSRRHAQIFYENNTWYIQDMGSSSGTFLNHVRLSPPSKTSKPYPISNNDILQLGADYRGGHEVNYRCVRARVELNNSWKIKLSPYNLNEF

MBP-Tea4 (S. pombe) = target: T3, MBP-Tea4 (S. pombe) (UniProt O60132); assay: pull-down; purified bacterially expressed MBP-Tea4 incubated with lysates of HU-treated Tip1-6HA yeast strains (wild type or dma1Δ; lysate with or without 50 nM USP2 for 2 h at 4 °C); 1–2 h at 4 °C; amylose resin; western blot; only the target purified
T3 sequence: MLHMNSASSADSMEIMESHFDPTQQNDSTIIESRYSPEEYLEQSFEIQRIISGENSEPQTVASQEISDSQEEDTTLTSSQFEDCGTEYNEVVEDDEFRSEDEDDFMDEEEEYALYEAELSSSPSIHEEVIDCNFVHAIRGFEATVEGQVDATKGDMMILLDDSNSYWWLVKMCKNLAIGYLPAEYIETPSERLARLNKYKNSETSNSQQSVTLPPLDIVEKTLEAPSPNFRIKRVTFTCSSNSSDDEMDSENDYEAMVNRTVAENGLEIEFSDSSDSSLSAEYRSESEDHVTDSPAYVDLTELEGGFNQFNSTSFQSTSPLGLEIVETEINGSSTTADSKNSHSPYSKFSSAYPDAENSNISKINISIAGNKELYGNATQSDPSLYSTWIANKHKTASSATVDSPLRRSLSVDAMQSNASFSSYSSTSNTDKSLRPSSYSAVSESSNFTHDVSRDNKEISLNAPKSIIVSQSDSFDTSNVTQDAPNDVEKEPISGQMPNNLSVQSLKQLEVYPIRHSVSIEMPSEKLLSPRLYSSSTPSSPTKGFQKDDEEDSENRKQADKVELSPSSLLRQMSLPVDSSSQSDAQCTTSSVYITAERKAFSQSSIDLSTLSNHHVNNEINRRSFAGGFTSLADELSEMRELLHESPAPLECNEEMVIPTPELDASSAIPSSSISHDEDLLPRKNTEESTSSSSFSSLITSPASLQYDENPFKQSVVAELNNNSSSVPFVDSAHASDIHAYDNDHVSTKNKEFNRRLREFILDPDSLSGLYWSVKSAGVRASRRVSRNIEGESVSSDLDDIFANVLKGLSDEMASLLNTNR

NTAP-Dma1 (S. pombe) = target: T4, NTAP-Dma1 (S. pombe) (UniProt Q10322); assay: co-IP; NTAP-Dma1 or NTAP-Dma1-5xGly-Ub(7KR) precipitated from S. pombe lysate with IgG Sepharose beads; NP-40 buffer (Supplementary Fig. 1c)
T4 sequence: T1 sequence

[3] = target: NTAP-Dma1-5xGly-ubiquitin(7K→7R) (S. pombe | not stated) (UniProt Q10322+P0CG48); assay: as above
Dma1-GFP (S. pombe) = target: T5, Dma1-GFP (S. pombe) (UniProt Q10322); assay: co-IP; lysates of S. pombe cells expressing GFP-tagged Dma1 (whole or 1-173aa) and 6HA-tagged Tip1 (whole or truncated); NP-40 buffer; GFP fusion immunoprecipitated with anti-GFP, anti-HA blot
T5 sequence: T1 sequence

binding [1]: binds
binding [2]: binds
binding (MBP-Tea4 (S. pombe)): binds
binding (NTAP-Dma1 (S. pombe)): binds
binding [3]: binds
binding (Dma1-GFP (S. pombe)): binds
B1: Tip1-6HA (protein, UniProt P79065 1-461)
chain: MFPLGSVVEVITGERGFVRYAGEVENRKGVYVGLELLPEFAEFGKNRGVVDGREYFKTKNNEKTGIFVPFDKCKLASSISSSPSPKIDGTAASIGMGFPPMSPNLQSSIPRLTNVSSSSNLSMNTISSTALTPTEKILQKRIEDLLYERQNHQQQLEEVLATVDQLQSLVTNFNDQQDEVDELRERITLKEERIQQMRNEASQRRFEFKTTIECLEESSNRAIETYENRIAELEAQLEMYMSGKSEDDLLFSLQQERDYALNQVEILQERVDTLMKQKANSSTANEKLSHMESSSPTLTNASFESPKRGKGSNDLPENHPQRRQTLEFYEIEIEVLREKVEKLQALSDEKDFYISKLEKSLDRNDTTPVPSDEKLSNYAAEKENLVSRISELEHTIEQLTINNERDNERMSPAEFELETTQEVEENDSDSHDDEETWCEVCETNNHSLQECPTVFGSTDEA
